Data reported in PMC5572722, “Dimerization in tailoring uptake efficacy of the HSV-1 derived membranotropic peptide gH625” (Scientific Reports, 2017).
Positions of bridges follow the written chain, without caps; N, C: chain ends. Residues, ends and D or L forms follow the SMILES beside them. Chains are numbered I, II in the order given. No end group written: not given here.

Experiments:
[1] = Membrane fluidity, Laurdan generalized polarization (GP); conditions: Laurdan in DOPC/Chol 60/40 LUVs with peptide, 25 °C, P/L molar ratio 0.05, 10 min after addition, 5 mM HEPES 100 mM NaCl pH 7.4; no peptide GP 0.27
[2] = Quenching of tryptophan by acrylamide (Stern-Volmer); conditions: acrylamide quenching of Trp, peptide 4 μM, excitation 295 nm, emission 340 nm; for Stern-Volmer quenching constant Ksv in DOPG/Chol: in DOPG/Chol 60/40 LUVs; for Stern-Volmer quenching constant Ksv in buffer: no LUVs
[3] = Membrane fluidity, Laurdan generalized polarization (GP); conditions: Laurdan in DOPG LUVs with peptide, 25 °C, P/L molar ratio 0.05, 10 min after addition, 5 mM HEPES 100 mM NaCl pH 7.4; no peptide GP 0.13
[4] = as above; conditions: Laurdan in DOPG/Chol 60/40 LUVs with peptide, 25 °C, P/L molar ratio 0.05, 10 min after addition, 5 mM HEPES 100 mM NaCl pH 7.4; no peptide GP 0.36
[5] = GUV image analysis, shape descriptors (light sheet fluorescence microscopy); conditions: GUVs DOPG/Chol 60/40, triplicate; for Mean circularity of GUVs after peptide treatment: Circularity = 4π×Area/Perimeter^2, GUVs alone 0.12, at least 2500 GUV per sample; for Mean roundness of GUVs after peptide treatment: Roundness = 4×Area/π×Major axis^2, GUVs alone 0.66
From the text: GUVs appear dark against the background as a consequence of the difference in refractive index of GUVs contents (sucrose solution) and the surrounding medium (glucose solution). A white halo appears around the vesicle. Formation of pores and of protuberances may be thus evidenced. GUVs appear under differential interference contrast (DIC) round shaped with an average smaller area compared to GUVs treated with gH625 (Table 5, Figure 8). […] The addition of gH625-H7 to GUVs produced a similar effect of gH625 with the only difference that it induces an enhancement of the GUVs fusion tendency (Figure 8). gH625 and gH625-H7 enhance the mean area and perimeter of GUVs (Figure 9A,C). […] Main shape descriptor analysis confirms that the addition of gH625 or gH625-H7 induces an increase in area and perimeter also indicating a decrease in circularity and roundness parameters (Table 5).
LUVs and SUVs for fluorescence,circular dichroism and surface plasmon resonance, consisting of DOPG, DOPG/Chol (60/40 mol/mol), DOPC/Chol (60/40 mol/mol), and when necessary containing Rho-PE and NBD-PE, or ANTS and DPX, were prepared in 5 mM HEPES, 100 mM NaCl, pH 7.4[66]. Aliquots containing the necessary amount of lipids were dried from a chloroform solution with a nitrogen gas stream and lyophilized overnight to produce dry lipid films which were then resuspended in buffer and vortexed for 1 h; the lipid suspension was freeze-thawed 6 times to obtain multilamellar vesicles (MLV). […] Lipid concentrations of liposome suspensions were determined by phosphate analysis. […]
GUVs were used upon one day from preparation. Ten microliters of fluorescent GUVs were analyzed (before and after the addition of gH625 or gH625-H7) under a custom made light sheet fluorescent microscope equipped with five laser lines (λ = 375 nm Coherent Cube, λ = 405 nm Coherent Cube, λ = 473 nm Laserworld Blue-200, λ = 532 nm Coherent Compass 215 M-10 DPSS laser and λ = 632.8 nm Thorlabs HRR005S Helium-Neon laser), a motorized microscope MS-2000 XY stage with LX-4000 controller (Applied Scientific Instrumentation), a Focus Drive motorized Z stage (Tofra Inc.) and Nano-F200S nanopositioner controlled by Nanodrive® controller (Mad City Labs); all devices were managed by MicroManager software. […] The emerging fluorescence was detected by the Orca flash 2.8 sCMOS camera (Hamamatsu) driven by Dalsa Xcelera (Teledyne DALSA) PCIe card mounted on AMD FX-8 core 3.5 GHz, 32 Gb RAM pc running Windows 8.1 (Microsoft). […] GUV parameters were calculated by the Analyze particles ImageJ plugin; a minimum size of 5 μm^2 and circularity of at least […] Circularity=4π×[Area]/[Perimeter]^2 with a value of 1.0 indicating a perfect circle) was considered. […]

Row | Compound | generalized polarization (GP) value [1] | Stern-Volmer quenching constant Ksv in DOPG/Chol [2] [M⁻¹] | Stern-Volmer quenching constant Ksv in buffer [2] [M⁻¹] | generalized polarization (GP) value [3] | generalized polarization (GP) value [4] | Mean circularity of GUVs after peptide treatment [5] | Mean roundness of GUVs after peptide treatment [5]
1 | CC[C@H](C)[C@H](NC(=O)[C@H](CC(C)C)NC(=O)[C@H](C)NC(=O)[C@H](CC(N)=O)NC(=O)[C@H](Cc1ccc(O)cc1)NC(=O)[C@H](Cc1c[nH]cn1)NC(=O)[C@H](C)NC(=O)[C@H](Cc1c[nH]c2ccccc12)NC(=O)[C@H](CCCNC(=N)N)NC(=O)[C@@H](NC(=O)[C@H](CC(C)C)NC(=O)[C@@H](NC(=O)[C@H](CO)NC(=O)[C@H](C)NC(=O)[C@H](CC(C)C)NC(=O)CNC(=O)[C@@H](N)Cc1c[nH]cn1)[C@@H](C)O)[C@@H](C)O)C(=O)N[C@@H](CCCNC(=N)N)C(=O)N[C@@H](C)C(=O)N[C@@H](Cc1ccccc1)C(=O)NCC(=O)NCC(=O)NCC(=O)N[C@@H](CCCCN)C(=O)N[C@@H](CCCCN)C(=O)N[C@@H](CCCCN)C(=O)N[C@@H](CCCCN)C(N)=O [gH625-G7] (H-HGLASTLTRWAHYNALIRAFGGGKKKK-NH2) | 0.29 | 4.74 ± 0.12 | 12.21 ± 0.16 | 0.11 | 0.40 | – | –
2 | I: HGLASTLTRWAHYNALIRAFGCGKKKK-NH2 / II: HGLASTLTRWAHYNALIRAFGCGKKKK-NH2 (disulfide I:22-II:22) [gH625-H7] | 0.34 | 3.66 ± 0.09 | 13.32 ± 0.38 | 0.18 | 0.48 | 0.08 | 0.54
3 | CC[C@H](C)[C@H](NC(=O)[C@H](CC(C)C)NC(=O)[C@H](C)NC(=O)[C@H](CC(N)=O)NC(=O)[C@H](Cc1ccc(O)cc1)NC(=O)[C@H](Cc1c[nH]cn1)NC(=O)[C@H](C)NC(=O)[C@H](Cc1c[nH]c2ccccc12)NC(=O)[C@H](CCCNC(=N)N)NC(=O)[C@@H](NC(=O)[C@H](CC(C)C)NC(=O)[C@@H](NC(=O)[C@H](CO)NC(=O)[C@H](C)NC(=O)[C@H](CC(C)C)NC(=O)CNC(=O)[C@@H](N)Cc1c[nH]cn1)[C@@H](C)O)[C@@H](C)O)C(=O)N[C@@H](CCCNC(=N)N)C(=O)N[C@@H](C)C(=O)N[C@@H](Cc1ccccc1)C(N)=O [gH625] (H-HGLASTLTRWAHYNALIRAF-NH2) | 0.28 | 8.07 ± 0.38 | 10.81 ± 0.18 | 0.10 | 0.36 | 0.11 | 0.59
